Measurements reported in PubChem BioAssay AID504786 (Drosophila RNAi Screening Center, 2011).
The screen tested about 21,000 reagents; below is an unselected part of those with a known target gene and a result. 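Primary screen; positive scores mean lost reporter signal, so the sign may be inverted from the usual convention.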 A plus sign joins genes that one reagent is predicted to hit.

Aim: 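Knock-downs reducing HIF reporter induction by the iron chelator DFO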 (primary screen)
Cells: Drosophila S2 cells with a stable HIF luciferase reporter
Reagent: long dsRNA against Drosophila genes, about 0.2 µg dsRNA per well of a 384-well plate
Time to read-out: three days of knock-down, then 20 h of DFO before reading
Treatment: desferrioxamine (DFO) at 100 µM, an iron chelator that mimics hypoxia, for 20 h
Measured: 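HIF reporter luminescence in cells given 100 µM DFO for 20 h, using the mouse ldh-a hypoxia-response element, scored as per-plate z-scores; higher means greater loss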
Direction: z-score: higher = stronger loss of HIF reporter signal

target gene | dsRNA | z-score, replicate 1 | z-score, replicate 2 | z-score, replicate 3 | z-score, replicate 4
CG5902 | DRSC15912 | -0.2 | -0.4 | – | –
sw + Sdic4 + Sdic3 + 2 more | DRSC20696 | -0.4 | -0.2 | – | –
CG17048 | DRSC06649 | -0.2 | 0 | – | –
CG6425 | DRSC16038 | -0.3 | 0 | – | –
TAF1C-like | DRSC04073 | -0.3 | -0.5 | – | –
CG7857 | DRSC10925 | -0.2 | -0.1 | – | –
Gbs-76A | DRSC11081 | -0.3 | -0.5 | – | –
shams | DRSC16590 | -0.3 | -0.5 | – | –
CG14569 | DRSC11730 | -0.3 | -0.3 | – | –
RnpS1 | DRSC15154 | 1.1 | 1.3 | – | –
gry | DRSC08028 | 0 | -0.5 | – | –
gry | DRSC08518 | -0.4 | -0.4 | – | –
ko | DRSC11893 | -0.3 | -0.1 | – | –
CG32551 | DRSC19259 | 0 | 0.4 | – | –
CG13021 | DRSC17893 | -0.1 | 0 | – | –
Ggamma30A | DRSC02715 | -0.3 | -0.4 | – | –
Ggamma30A | DRSC03331 | -0.2 | -0.1 | – | –
AP-1mu | DRSC14089 | -0.3 | -0.4 | – | –
PCNA2 | DRSC02030 | -0.3 | -0.2 | – | –
Obp57c | DRSC06384 | 0 | -0.1 | – | –
CG10177 | DRSC14201 | -0.3 | -0.5 | – | –
CG8149 | DRSC16391 | 0.1 | -0.2 | – | –
Nopp140 | DRSC11872 | -0.3 | -0.2 | – | –
b | DRSC03487 | -0.3 | 0.8 | – | –
CG30076 | DRSC05494 | -0.1 | -0.1 | – | –
pippin | DRSC04489 | -0.3 | -0.2 | – | –
CG5023 | DRSC15697 | 0.7 | 0 | – | –
Alr | DRSC19469 | 0.3 | 0.4 | – | –
CG11449 | DRSC11662 | -0.3 | -0.3 | – | –
CG18294 | DRSC09891 | -0.3 | -0.4 | – | –
Neurochondrin | DRSC12580 | -0.4 | -0.4 | – | –
Fs | DRSC06258 | -0.3 | -0.3 | – | –
Fs | DRSC06259 | -0.4 | -0.1 | – | –
Cpr76Bb | DRSC11061 | -0.3 | -0.1 | – | –
kto | DRSC10983 | 0.2 | 0.7 | – | –
Rrp47 | DRSC20124 | -0.2 | 0.5 | – | –
CG6136 | DRSC15975 | -0.1 | 0.1 | – | –
CG9452 | DRSC11075 | 1.7 | 0.1 | – | –
Sec23 | DRSC12387 | -0.5 | -0.8 | -1 | -0.3
fzy | DRSC03534 | -0.2 | 2.7 | – | –
CG7655 | DRSC16275 | -0.2 | -0.4 | – | –
CG17195 | DRSC15188 | -0.3 | -0.2 | – | –
cocoon | DRSC10916 | -0.3 | -0.2 | – | –
CG11999 | DRSC12185 | -0.3 | 0.2 | – | –
CG3630 | DRSC18499 | -0.3 | -0.5 | – | –

Single entries from the list:
Entry of pippin [DRSC04489] under “z-score, replicate 1”: -0.3
For “z-score, replicate 2”, CG9452 [DRSC11075] has 0.1
TAF1C-like [DRSC04073], z-score, replicate 2: -0.5
Under “z-score, replicate 2”, fzy [DRSC03534] reads 2.7
Result for kto [DRSC10983] under “z-score, replicate 2”: 0.7
Value of b [DRSC03487] in “z-score, replicate 1”: -0.3

Further reagents:
target gene | dsRNA | z-score, replicate 1 | z-score, replicate 2 | z-score, replicate 3 | z-score, replicate 4
br | DRSC17691 | -0.6 | -0.6 | – | –
br | DRSC17789 | -0.1 | -0.7 | – | –
br | DRSC18743 | -0.4 | -0.6 | – | –
br | DRSC18744 | -0.3 | -0.8 | – | –
Cyp4e3 | DRSC03306 | -0.3 | -0.2 | – | –
RpS30 | DRSC15119 | 3.8 | 7.6 | – | –
CG15831 (retired record) | DRSC20816 | -0.1 | 0.1 | – | –
Snm1 | DRSC12130 | -0.4 | -0.7 | – | –
Cdk7 | DRSC18451 | -0.1 | 1.2 | – | –
CG17742 (retired record) | DRSC10285 | 2.8 | 5.3 | – | –
CG5885 | DRSC02910 | 0.4 | 0.7 | – | –
Pif1A + Pif1B | DRSC14142 | 0.2 | -0.8 | – | –
Pif1A + Pif1B | DRSC14380 | -0.4 | -0.6 | – | –
Pif1A + Pif1B | DRSC14381 | 0.1 | -0.5 | – | –
Ip6k | DRSC04054 | 0 | -0.1 | – | –
CG7744 | DRSC07036 | -0.2 | 0.2 | – | –
Ilp8 | DRSC10076 | -0.3 | -0.2 | – | –
Antdh | DRSC20307 | -0.2 | -0.5 | – | –
CG11404 | DRSC11656 | -0.2 | -0.2 | – | –
lin-52 | DRSC18106 | -0.2 | -0.7 | – | –
CG31126 | DRSC14623 | -0.5 | -0.5 | – | –
smo | DRSC00837 | -0.3 | -0.1 | – | –
ato | DRSC16904 | 0 | 0.4 | – | –
Dpm1 | DRSC02018 | -0.3 | -0.3 | – | –
Sr-CIV | DRSC00575 | -0.3 | -0.3 | – | –
Cdc5 | DRSC08577 | -0.2 | 0.1 | – | –
Aef1 | DRSC11605 | -0.4 | -0.4 | – | –
Tango2 | DRSC19394 | -0.2 | -0.2 | – | –
Sgt1 | DRSC16519 | 0 | 0.9 | – | –
CG2004 | DRSC18200 | -0.3 | 0.2 | – | –
CG1387 | DRSC17904 | -0.4 | -0.6 | – | –
Start1 | DRSC04384 | -0.1 | -0.5 | – | –
Sln | DRSC07133 | -0.6 | -0.7 | – | –
GstE12 | DRSC04047 | 0.3 | -0.1 | – | –
CG31373 | DRSC16052 | -0.1 | -0.5 | – | –
GstE1 | DRSC07437 | -0.4 | -0.2 | – | –
Spred | DRSC05976 | -0.4 | -0.2 | – | –
CG7692 | DRSC10902 | -0.3 | -0.2 | – | –
